Measurements reported in PubChem BioAssay AID1259308 (NCATS, 2017)
The deposit covers about 59,000 reagents; shown is a random part of them. About 1,510 of them (2.6%) were called active. 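Calls use total luciferase alone and ignore viability, so some active siRNAs may act by altering cell number.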 Reagents against one gene are numbered here. Further read-outs or replicates are left out here. No sequences are given here.

- Screen: 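Candidate targets for better recombinant protein yield in mammalian cells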 (primary screen)
- Cell system: human HEK293 embryonic kidney cells stably expressing firefly luciferase (HEK-CMV-Luc2-Hygro)
- Knock-down reagent: single siRNA against human genes, 0.8 pmol siRNA per well
- Time to read-out: 72 h
- Measurement: 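Reporter luminescence and viable-cell signal on separate replicate plates, given as percent of non-targeting control and median/MAD z-scores, plus per-cell luciferase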
- Reading the numbers: total luciferase, z-score and total luciferase, % of control: higher = more reporter protein produced
- Active means: 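An siRNA counts as active if its total luciferase robust z-score exceeds 3; genes with two or more such siRNAs out of three were retested with fresh siRNAs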
- Calls: active = raised luciferase; inactive = no rise

no.	target gene	siRNA no.	total luciferase, z-score	total luciferase, % of control	Call
1	RHOB (ras homolog family member B)	1	-2.03	41.4	inactive
2	RHOB (ras homolog family member B)	2	0.55	92.8	inactive
3	RHOB (ras homolog family member B)	3	-0.132	79.3	inactive
4	CYTH1 (cytohesin 1)	1	-0.186	78.2	inactive
5	CYTH1 (cytohesin 1)	2	1.11	104	inactive
6	CYTH1 (cytohesin 1)	3	0.821	98.2	inactive
7	TNFRSF14 (TNF receptor superfamily member 14)	1	0.0862	83.6	inactive
8	TNFRSF14 (TNF receptor superfamily member 14)	2	-1.34	55.3	inactive
9	TNFRSF14 (TNF receptor superfamily member 14)	3	-0.078	80.3	inactive
10	PCCB (propionyl-CoA carboxylase subunit beta)	1	1.38	109	inactive
11	PCCB (propionyl-CoA carboxylase subunit beta)	2	-0.0714	80.5	inactive
12	PCCB (propionyl-CoA carboxylase subunit beta)	3	-0.644	69.1	inactive
13	ART3 (ADP-ribosyltransferase 3 (inactive))	1	-0.561	70.7	inactive
14	ART3 (ADP-ribosyltransferase 3 (inactive))	2	2.6	134	inactive
15	ART3 (ADP-ribosyltransferase 3 (inactive))	3	-0.366	74.6	inactive
16	FNTA (farnesyltransferase, CAAX box, subunit alpha)	1	0.396	89.8	inactive
17	FNTA (farnesyltransferase, CAAX box, subunit alpha)	2	0.881	99.4	inactive
18	FNTA (farnesyltransferase, CAAX box, subunit alpha)	3	1.89	119	inactive
19	SLC7A3	1	-1.75	47	inactive
20	SLC7A3	2	-1.89	44.3	inactive
21	SLC7A3	3	-0.681	68.3	inactive
22	UBXN7 (UBX domain protein 7)	1	1.57	113	inactive
23	UBXN7 (UBX domain protein 7)	2	-0.126	79.4	inactive
24	UBXN7 (UBX domain protein 7)	3	0.764	97.1	inactive

2 entries from above in another layout.
RHOB (ras homolog family member B) #2
- total luciferase, z-score: 0.55
- total luciferase, % of control: 92.8
- Call: inactive

RHOB (ras homolog family member B) #3
- total luciferase, z-score: -0.132
- total luciferase, % of control: 79.3
- Call: inactive
